The subject of the series is RNAP sigma70 holoenzyme (Esigma70) (Escherichia coli). Briefly: KMnO4 footprinting. To be noted: +NTP + GreB, bubble reduced but not eliminated; 40 mM Tris-HCl pH 8.0, 1 mM DTT, 0.1 mg/ml BSA, 10 mM MgCl2, 50 mM KCl, 37 C (transcription buffer); 150 nM Esigma70, sample mixed 1:1 with 20 mM KMnO4 for 15 s; recombinant protein; label: 5'-32P on template or non-template strand; probe letters rebuilt from the primers and the genome.

The exact form of at least one protein or probe is not confirmed.

In the case of “ACCTCGGTATGCCTTGTGACTGGCTTGACAAGCTTTTCCTCAGCTCCGTAAACTCCTTTCAGTGGGAAATTGTGGGGCAAAGTGGGAATAAGGGGTGAGGCTGGCATGTTCCGGGGAGCAA (double strand) [mraZ promoter (G1p) permanganate template]”, the binding result is “binds”.
The value for “ATCGCCAGCGCGCGATGATGTTCCGAAGACTATAAGGCATGTTATAGTCTGGATTATATTGAGGCAAGTCACCCTCCCATTTATTCAGAGTAAAAGTCTATTCTGTGATAAATGGC (double strand) [minC promoter (G1d) permanganate template]” was “binds”.

The values above are taken from article PMC7876045.
